This is an account of results in paper PMC10018365, “Cryo-EM structure of the fully assembled Elongator complex” (Nucleic Acids Research, 2023).

Chains of the proteins cited; added tags and fusions are not shown. Lines headed by an entry give the natural chain unless they say otherwise; changes in a name come on top.
UniProt P42935: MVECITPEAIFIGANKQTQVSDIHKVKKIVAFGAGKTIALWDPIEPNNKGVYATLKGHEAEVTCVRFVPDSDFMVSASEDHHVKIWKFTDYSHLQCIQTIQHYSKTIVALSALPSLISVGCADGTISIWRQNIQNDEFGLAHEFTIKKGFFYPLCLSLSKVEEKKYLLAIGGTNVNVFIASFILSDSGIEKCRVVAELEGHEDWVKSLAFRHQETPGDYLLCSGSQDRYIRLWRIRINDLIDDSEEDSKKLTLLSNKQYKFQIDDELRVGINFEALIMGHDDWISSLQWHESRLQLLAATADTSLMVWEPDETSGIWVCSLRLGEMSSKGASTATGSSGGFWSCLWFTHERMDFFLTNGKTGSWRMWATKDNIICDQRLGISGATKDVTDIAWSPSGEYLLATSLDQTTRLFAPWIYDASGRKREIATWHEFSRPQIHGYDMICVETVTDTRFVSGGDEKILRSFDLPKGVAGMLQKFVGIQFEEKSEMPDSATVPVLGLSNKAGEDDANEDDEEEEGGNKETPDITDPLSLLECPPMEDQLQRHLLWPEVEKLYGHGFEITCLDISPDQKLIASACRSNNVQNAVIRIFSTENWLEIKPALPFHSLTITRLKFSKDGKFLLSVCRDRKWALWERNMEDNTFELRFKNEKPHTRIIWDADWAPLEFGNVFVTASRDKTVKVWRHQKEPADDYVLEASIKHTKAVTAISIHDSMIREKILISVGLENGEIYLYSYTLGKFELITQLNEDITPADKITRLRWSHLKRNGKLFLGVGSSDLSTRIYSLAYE
UniProt Q02908: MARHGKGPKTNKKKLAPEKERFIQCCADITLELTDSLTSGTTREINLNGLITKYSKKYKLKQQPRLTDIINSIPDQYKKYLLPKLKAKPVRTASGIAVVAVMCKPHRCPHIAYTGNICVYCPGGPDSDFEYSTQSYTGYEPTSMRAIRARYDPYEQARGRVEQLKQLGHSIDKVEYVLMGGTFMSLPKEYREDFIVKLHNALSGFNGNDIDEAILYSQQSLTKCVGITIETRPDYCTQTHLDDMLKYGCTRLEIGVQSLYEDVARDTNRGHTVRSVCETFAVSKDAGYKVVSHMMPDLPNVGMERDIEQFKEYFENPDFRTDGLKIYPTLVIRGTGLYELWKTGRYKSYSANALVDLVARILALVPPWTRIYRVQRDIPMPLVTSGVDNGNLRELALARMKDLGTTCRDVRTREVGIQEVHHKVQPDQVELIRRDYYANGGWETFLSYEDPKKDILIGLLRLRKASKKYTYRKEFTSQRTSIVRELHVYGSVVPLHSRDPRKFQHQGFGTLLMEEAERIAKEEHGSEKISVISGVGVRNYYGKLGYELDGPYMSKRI
UniProt Q02884: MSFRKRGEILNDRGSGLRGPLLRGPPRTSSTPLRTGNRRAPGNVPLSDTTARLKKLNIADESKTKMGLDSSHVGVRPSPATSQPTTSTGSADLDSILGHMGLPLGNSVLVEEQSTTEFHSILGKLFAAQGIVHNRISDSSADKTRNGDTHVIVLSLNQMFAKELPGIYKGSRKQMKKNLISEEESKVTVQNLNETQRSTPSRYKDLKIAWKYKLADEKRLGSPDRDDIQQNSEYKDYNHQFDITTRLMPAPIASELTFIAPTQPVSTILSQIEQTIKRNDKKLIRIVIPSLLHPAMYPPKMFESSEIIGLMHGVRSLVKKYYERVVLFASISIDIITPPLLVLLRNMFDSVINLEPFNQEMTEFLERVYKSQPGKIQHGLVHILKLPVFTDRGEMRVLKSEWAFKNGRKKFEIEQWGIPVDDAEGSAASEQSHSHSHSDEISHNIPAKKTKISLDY
UniProt Q04868: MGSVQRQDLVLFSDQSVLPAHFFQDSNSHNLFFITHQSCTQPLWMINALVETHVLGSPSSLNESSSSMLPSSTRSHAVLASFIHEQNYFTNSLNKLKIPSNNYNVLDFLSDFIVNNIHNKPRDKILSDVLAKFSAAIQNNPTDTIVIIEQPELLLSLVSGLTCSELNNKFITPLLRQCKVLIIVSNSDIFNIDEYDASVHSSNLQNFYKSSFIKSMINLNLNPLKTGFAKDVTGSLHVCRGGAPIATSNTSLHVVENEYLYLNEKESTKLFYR
UniProt Q00955: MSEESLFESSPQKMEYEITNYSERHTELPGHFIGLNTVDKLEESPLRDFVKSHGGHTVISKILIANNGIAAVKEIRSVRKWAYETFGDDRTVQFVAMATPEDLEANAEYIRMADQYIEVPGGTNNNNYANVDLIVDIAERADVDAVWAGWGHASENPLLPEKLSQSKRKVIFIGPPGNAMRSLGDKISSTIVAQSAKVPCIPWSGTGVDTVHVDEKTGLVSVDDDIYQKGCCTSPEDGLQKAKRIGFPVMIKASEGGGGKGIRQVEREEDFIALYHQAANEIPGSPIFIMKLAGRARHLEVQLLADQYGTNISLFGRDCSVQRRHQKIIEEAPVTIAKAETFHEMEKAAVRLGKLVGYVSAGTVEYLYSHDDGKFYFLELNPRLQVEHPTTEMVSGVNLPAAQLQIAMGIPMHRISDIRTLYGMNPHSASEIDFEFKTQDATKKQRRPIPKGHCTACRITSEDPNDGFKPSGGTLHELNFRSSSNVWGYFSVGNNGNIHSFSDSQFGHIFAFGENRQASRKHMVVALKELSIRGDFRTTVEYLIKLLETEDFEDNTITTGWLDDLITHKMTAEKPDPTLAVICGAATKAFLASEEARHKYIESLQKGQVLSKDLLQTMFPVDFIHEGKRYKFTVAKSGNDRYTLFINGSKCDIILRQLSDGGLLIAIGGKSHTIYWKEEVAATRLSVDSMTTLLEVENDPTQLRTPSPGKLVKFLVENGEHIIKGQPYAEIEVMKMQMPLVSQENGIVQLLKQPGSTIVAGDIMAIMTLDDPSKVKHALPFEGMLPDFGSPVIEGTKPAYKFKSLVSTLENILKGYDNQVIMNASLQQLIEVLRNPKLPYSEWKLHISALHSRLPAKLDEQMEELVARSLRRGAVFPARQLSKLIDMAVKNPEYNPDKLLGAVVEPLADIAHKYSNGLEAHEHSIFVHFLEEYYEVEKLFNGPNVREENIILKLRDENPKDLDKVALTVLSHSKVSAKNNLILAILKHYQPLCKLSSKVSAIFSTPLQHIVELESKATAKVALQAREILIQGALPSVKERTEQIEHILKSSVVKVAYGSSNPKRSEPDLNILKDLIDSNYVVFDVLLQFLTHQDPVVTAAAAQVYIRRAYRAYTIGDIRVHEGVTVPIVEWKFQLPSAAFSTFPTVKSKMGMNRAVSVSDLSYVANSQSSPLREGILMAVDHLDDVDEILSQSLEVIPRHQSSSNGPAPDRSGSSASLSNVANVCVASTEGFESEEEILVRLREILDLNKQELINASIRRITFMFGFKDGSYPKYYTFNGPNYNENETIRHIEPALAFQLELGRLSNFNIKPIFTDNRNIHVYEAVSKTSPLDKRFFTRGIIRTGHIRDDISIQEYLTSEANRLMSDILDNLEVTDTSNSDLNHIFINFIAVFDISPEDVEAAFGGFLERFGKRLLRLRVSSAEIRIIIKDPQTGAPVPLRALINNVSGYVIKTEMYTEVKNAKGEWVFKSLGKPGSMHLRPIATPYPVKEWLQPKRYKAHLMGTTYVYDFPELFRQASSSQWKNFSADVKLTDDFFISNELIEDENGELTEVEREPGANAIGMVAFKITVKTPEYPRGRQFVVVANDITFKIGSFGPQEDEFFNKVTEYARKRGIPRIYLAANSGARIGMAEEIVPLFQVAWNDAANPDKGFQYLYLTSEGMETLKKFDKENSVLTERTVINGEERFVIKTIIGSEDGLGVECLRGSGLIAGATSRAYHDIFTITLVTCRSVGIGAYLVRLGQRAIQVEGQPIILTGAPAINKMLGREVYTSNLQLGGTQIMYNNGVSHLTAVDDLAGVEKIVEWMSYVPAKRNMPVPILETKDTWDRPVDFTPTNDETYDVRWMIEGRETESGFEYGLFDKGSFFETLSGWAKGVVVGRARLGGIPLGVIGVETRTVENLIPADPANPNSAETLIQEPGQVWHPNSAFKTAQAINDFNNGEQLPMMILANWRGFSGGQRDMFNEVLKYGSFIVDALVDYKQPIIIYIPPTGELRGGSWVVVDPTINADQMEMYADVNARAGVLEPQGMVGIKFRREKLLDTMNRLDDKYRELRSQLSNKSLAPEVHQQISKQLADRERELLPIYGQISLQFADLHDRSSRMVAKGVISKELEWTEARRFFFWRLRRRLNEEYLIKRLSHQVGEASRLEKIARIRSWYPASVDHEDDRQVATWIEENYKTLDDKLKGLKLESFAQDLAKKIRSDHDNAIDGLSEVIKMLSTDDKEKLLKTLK

Results are given in words; binding and its absence hold for the method and conditions named. For part of these data: Binding seen in cells or lysates may run through a third protein. For part of these data: Tags and fused reporters may be left off the sequences shown.

In assay [1] the target is T1, Elp1-(c-myc)3 (S. cerevisiae (endogenous, tagged)) (UniProt Q06706).
T1 sequence: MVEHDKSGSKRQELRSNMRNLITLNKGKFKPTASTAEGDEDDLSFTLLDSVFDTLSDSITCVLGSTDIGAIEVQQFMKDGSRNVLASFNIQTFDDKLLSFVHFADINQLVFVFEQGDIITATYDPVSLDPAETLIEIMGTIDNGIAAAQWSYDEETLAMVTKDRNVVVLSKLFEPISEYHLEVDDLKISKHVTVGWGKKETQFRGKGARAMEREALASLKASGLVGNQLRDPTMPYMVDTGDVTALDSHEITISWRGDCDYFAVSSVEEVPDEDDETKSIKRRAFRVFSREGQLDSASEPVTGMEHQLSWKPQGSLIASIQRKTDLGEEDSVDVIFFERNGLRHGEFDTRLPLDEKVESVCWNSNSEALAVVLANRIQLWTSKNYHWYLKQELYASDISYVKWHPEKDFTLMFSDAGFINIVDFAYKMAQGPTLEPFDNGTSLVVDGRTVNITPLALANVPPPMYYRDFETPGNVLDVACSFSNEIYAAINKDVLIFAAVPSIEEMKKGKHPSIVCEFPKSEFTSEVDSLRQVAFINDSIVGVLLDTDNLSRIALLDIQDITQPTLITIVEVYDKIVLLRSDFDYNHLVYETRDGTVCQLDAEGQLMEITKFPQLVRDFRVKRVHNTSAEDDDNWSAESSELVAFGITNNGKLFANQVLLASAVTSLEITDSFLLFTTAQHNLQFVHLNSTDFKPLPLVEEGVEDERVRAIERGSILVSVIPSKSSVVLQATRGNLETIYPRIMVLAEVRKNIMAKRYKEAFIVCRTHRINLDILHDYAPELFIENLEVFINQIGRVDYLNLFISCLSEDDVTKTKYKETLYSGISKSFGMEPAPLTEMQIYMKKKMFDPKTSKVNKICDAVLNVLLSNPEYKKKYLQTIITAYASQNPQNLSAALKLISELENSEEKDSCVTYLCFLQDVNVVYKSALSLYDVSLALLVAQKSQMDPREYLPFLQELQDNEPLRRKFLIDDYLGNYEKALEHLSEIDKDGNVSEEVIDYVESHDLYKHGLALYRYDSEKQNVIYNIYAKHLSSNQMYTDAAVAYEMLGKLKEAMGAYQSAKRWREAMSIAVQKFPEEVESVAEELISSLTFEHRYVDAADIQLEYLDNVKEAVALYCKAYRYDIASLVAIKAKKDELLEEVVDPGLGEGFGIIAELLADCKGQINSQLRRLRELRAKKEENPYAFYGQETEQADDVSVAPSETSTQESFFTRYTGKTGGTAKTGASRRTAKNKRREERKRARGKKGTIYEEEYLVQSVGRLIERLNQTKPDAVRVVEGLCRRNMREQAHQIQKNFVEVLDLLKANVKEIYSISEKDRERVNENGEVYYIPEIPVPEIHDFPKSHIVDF
Nature of the assay: co-IP; yeast strain with endogenous Elp1 (c-myc), Elp5 (FLAG) and Acc1 (GFP); 8 mg lysate with antibody-coupled Dynabeads or anti-FLAG M2 magnetic beads overnight, washes in B60 buffer, Western blot. (In general: A western blot detects proteins with antibodies after separation by electrophoresis.)

Assay [2] deals with T2, Elp5-(FLAG)3 (S. cerevisiae (endogenous, tagged)) (UniProt P38874).
T2 sequence: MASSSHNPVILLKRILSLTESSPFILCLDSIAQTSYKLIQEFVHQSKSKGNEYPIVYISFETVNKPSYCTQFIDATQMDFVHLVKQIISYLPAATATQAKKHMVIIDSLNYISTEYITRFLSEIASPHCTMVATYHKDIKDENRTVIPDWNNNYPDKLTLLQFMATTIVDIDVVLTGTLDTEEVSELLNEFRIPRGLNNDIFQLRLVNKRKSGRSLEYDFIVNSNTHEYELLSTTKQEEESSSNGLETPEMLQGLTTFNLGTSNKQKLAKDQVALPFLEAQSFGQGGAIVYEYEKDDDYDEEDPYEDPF
The description is as above.

Assay [3] deals with Saccharomyces cerevisiae Elongator complex, fully assembled (Elp1-Elp6) (Saccharomyces cerevisiae) (UniProt Q06706+P42935+Q02908+Q02884+P38874+Q04868). Kind of assay: cross-linking; purified ScElongator (2.22 μM) photo-crosslinked with sulfo-SDA (1:500 and 1:1000), UV 365 nm, LC-MS/MS, 3% FDR on residue pairs; both purified.

For “Acc1 (GFP) (from UniProt Q00955 1-2233) (enzyme)”, the binding result in assay [1] and in assay [2] was “no binding” throughout.
As for “Acetyl-CoA carboxylase 1 (from UniProt Q00955 1-2233) (enzyme)”, the binding entry in assay [3] is recorded as “no binding”.
